Source: paper PMC3106354 (Current Chemical Genomics, 2011)

System: LPS induced TNF-α production in THP-1 cells
Test: ELISA measurement of TNF-α: inhibition of LPS induced TNF-α production
Assay type: cell-based
Settings: Homo sapiens, THP-1, 17 h, read-out: IC50 in ELISA assay (text, Fig. 5)

An IC50 of 0.0106 µM was found for O=[N+]([O-])c1ccc(-c2nc(-c3ccncc3)c(-c3ccc(F)cc3)[nH]2)cc1 [PD 169316] in this work.
